# Measurements taken from PubChem BioAssay AID493014 (National Center for Advancing Translational Sciences (NCATS), 2011).
# Out of some 340,000 compounds screened, about 170 (0.05%) were called active. The inconclusive results got no clear call from the source; some entries with a clear call stand among them for comparison. Calls follow the shape of the dose curve; as a rule, active = well fitted inhibition curve with a large enough effect in the signal ratio, with a control signal flat (not every such curve was filed as active); inconclusive = small, poorly fitted or top-dose-only effect, or effect the other way, or a change in a side signal; inactive = flat fitted curve, though single readings scatter; the % refers to the signal ratio. Potencies of inconclusive entries are doubtful fits and often do not repeat.
# Experiment: qHTS Assay to Find Inhibitors of Chronic Active B-Cell Receptor Signaling;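 as to activity change, negative = inhibition: plate controls were basal doxycycline-induced cells for no effect and cells given 10 µM MG132 for full effect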
# Details: ABC-DLBCL IkBa-CBG/CBR reporter, luminescence ratio (green luciferase fused to IkBa over red control in TMD8 lymphoma cells), 4 h; activity change, negative = inhibition: at 46.1 µM (top of the series) unless noted
# Source text: NIH Molecular Libraries Probe Production Network [MLPCN] NIH Chemical Genomics Center [NCGC] MLPCN Grant: 1 R03 DA031086-01A1 PI Name: Dr. R. Eric Davis NCGC Assay Overview: Diffuse large B-cell lymphoma (DLBCL) is the most common category of non-Hodgkin lymphoma, with ~20,000 new cases per year in the United States. DLBCL should be regarded as a collection of different neoplasms. Microarray gene expression analysis has defined two principal types of DLBCL, named for their similarity to normal B cell stages or activation states: a germinal center B-cell (GCB) type, and an activated B-cell (ABC) type. In ABC-DLBCL, a constitutive high-level activity of the NF-kappaB family of transcription factors has been observed (1) and NF-kappaB target genes are more highly expressed in ABC primary tumors than in GCB tumors. Functional studies have shown a constitutive high-level activity of the IkappaB (inhibitor of kappa-B) kinase (IKK) complex. […] Further analysis of DLBCL primary tumors for NF-kappaB target gene expression imply that although CARD11 is required for constitutive IKK activity in all ABC-DLBCL lines, mutations in CARD11 may be the root cause of IKK activation only in lines or tumors with such mutations. In other words, CARD11 mutations may explain NF-kappaB activation in only 10% of ABC-DLBCL cases. […] This process has been termed 'chronic active BCR signaling' (CABS). The goal of this screen is to find small-molecule inhibitors of the CABS pathway found in ABC-DLBCL lines using a cell-based assay that measures IkappaBalpa stability, which has already been extensively validated in the OCI-Ly3 line (PubChem AID:445; REF: 4). […] The assay uses green (CBG68) and red (CBR) emitting beetle luciferases [Chroma-GloTM developed by Promega Corp.] where the green luciferase is fused to IkappaBalpha and the red luciferase is present in its native state. Both luciferase genes are stably present in the TMD8 human ABC DLBCL cell line, but their expression is under the control of tetracycline-inducible promoters. Following the addition of doxycycline to induce expression of the luciferases, the green luminescence in control cultures rises only slowly because the CBG fusion partner IkappaBalpha is targeted by IKK activity for rapid degradation. In contrast, green luminescence rises rapidly in the presence of proteasome inhibitors or IKK inhibitors. The rise in red luminescence of CBR is not affected by proteasome or IKK inhibitors, and serves as normalization for cell number and nonspecific effects. Compounds were screened as a concentration-titration series that ranged from 46 uM to 3 nM.
# NCGC Assay Protocol Summary: Cells were seeded in 1536-well plates at 5000 cells/4uL in IMDM medium containing 0.5% FBS, w/o phenol red, 1% penicillin/streptomycin. Then, 23 nL of compounds or DMSO were delivered to each well using a pin tool. One uL 20ng/ml doxycycline was then dispensed into white solid 1536-well plates and the plates were incubated at 37C/5% C02 in a cell incubator for 4 hrs. Then 4 uL luminescent substrate mix (in-house prepared: 150 mM Tris-Cl, pH 7.6, 3 mM MgCl2, 1% Triton X-100, 5 mM DTT, 0.2 mM CoA, 0.15 mM ATP, 5 mM D-luciferin, final concentrations) was added to each well. The plate was incubated at r.t. for 10-15 min. The plates were measured on a ViewLux plate reader for green luminescence (540/20 nm filter) and red luminescence (618/8 nm filter). The green and red luminescent signals were corrected for red and green luminescence filter overlap using previously determined filter calibration constants (determined using the procedure outlined in the Promega Technical Manual; REF 4). The %Activity was determined from the ratio of corrected green/red luminescent values. MG132 were used as control. […] Red luminescent %Activity was normalized to the difference between red luminesence in basal cells (0%Activity) and zero luminescence (-100% Activity). […]
# Potency is read from the fitted curve at half-maximal effect.
SMILES,"activity change, negative = inhibition",Potency
CCc1ccc(C(C)NC(=O)C2(C)CC2(Br)Br)cc1 (stereo unspecified),inconclusive: 8.78%,–
C/C=C/c1ccc(O)c(OC)c1,inconclusive: 0.305%,–
O=C(c1ccccc1)N1N=C(C(F)(F)F)CC1(O)c1ccccc1 (stereo unspecified),inactive,–
COc1cc(OC)cc(C(=O)N2CCC(N3CCCCCC3)CC2)c1,inconclusive: 15.3%,–
Cc1ccc(C(NC(=O)N2CCOCC2)C(Cl)Cl)cc1F (stereo unspecified),–,"inconclusive: 10.3 µM [falling, partial curve]"
O=S(=O)(Nc1nc2ccccc2nc1N1CCN(c2ccccn2)CC1)c1ccc(Cl)cc1,inconclusive: -8.59%,–
CCCc1cc(C(=O)NC2CCCN(Cc3ccccc3F)C2)no1 (stereo unspecified),inactive,–
Cc1cc(NC(=O)CSc2nnc(CNC(=O)c3ccc(F)cc3)o2)no1,inactive,–
CCC(=O)N1CCc2cc(Br)cc(S(=O)(=O)CCC(=O)NCCc3ccccc3)c21,–,"inconclusive: 1.84 µM [rising, partial curve, poor fit]"
CCc1ccc(-c2nc(CN3CCC(C(=O)NCc4ccccc4OC)CC3)c(C)o2)cc1,inactive,–
O=C(Nc1nc(-c2ccc3ccccc3c2)cs1)C1CCN(S(=O)(=O)c2cccs2)CC1,inactive,–
CC(=O)c1ccc(OCCCC(=O)OCC(=O)Nc2c(C)nn(-c3ccccc3)c2C)cc1,inconclusive: 4.29%,–
COCCN(C(=O)c1ccccc1F)c1nc(-c2ccc(OC)cc2)cs1,inactive,–
O=C(N/N=C/c1ccc(OCc2ccccc2)cc1)c1ccco1,inactive,–
Cc1cc(OC(=O)c2ccccc2Cl)cc(=O)n1C,inconclusive: -6.77%,–
COC(=O)c1ccc(OCC2c3cc(OC)c(OC)cc3CCN2C(=O)c2ccco2)cc1 (stereo unspecified),–,"inconclusive: 17.8 µM [falling, partial curve, poor fit]"
O=C(NCc1ccc(F)cc1)c1ccc(N2CCOCC2)c([N+](=O)[O-])c1,inconclusive: -0.919%,–
Cc1ccc(C)c(NC(=S)NCc2cccs2)c1,inactive,–
CCCc1nc2c(nnn2Cc2ccccc2Cl)c(=O)[nH]1,inconclusive: 3.19%,–
Cc1ccc(CNC(=O)C2CCN(S(=O)(=O)c3c(C)noc3/C=C/c3ccco3)CC2)cc1,inconclusive: -3.7%,–
Cc1cccc(C(=O)Nc2sc(-c3ccccc3)cc2C(=O)O)c1,–,"inconclusive: 28.2 µM [falling, single point]"

# Record cards, as listed above:
# `O=C(Nc1nc(-c2ccc3ccccc3c2)cs1)C1CCN(S(=O)(=O)c2cccs2)CC1` is entered as activity change, negative = inhibition: inactive
# `CCCc1cc(C(=O)NC2CCCN(Cc3ccccc3F)C2)no1` (stereo unspecified) is entered as activity change, negative = inhibition: inactive

# Later entries

SMILES,"activity change, negative = inhibition",Potency
CCOC(=O)C1(CCOc2ccccc2)CCN(Cc2ccncc2)CC1,inactive,–
CCCOc1ccc(-c2c(C(=O)N/N=C/c3cccs3)nnn2-c2nonc2N)cc1,inconclusive: 0.58%,–
Cc1ccc(C2/C(=C(/O)c3cnn(-c4ccccc4)c3C)C(=O)C(=O)N2CCN2CCOCC2)o1 (stereo unspecified),–,"inconclusive: 5.17 µM [rising, partial curve, poor fit]"
COC(=O)c1nnn(CC(=O)Nc2cccc(OC)c2)c1C(=O)OC,inconclusive: 1.46%,–
CC(=O)c1cccc(NC(=O)CC2CCCC2)c1,inconclusive: 7.63%,–
O=C(CSc1nc2ccccc2c(=O)n1CC1CCCO1)Nc1ccc(F)cc1 (stereo unspecified),–,"inconclusive: 10 µM [falling, partial curve]"
CCCCCCc1cc2cc(S(=O)(=O)c3ccc(C)cc3)c(=O)oc2cc1O,inactive,–
Cc1ccc(/C=C(\NC(=O)c2ccccc2)C(=O)N2CCCCC2)cc1,inconclusive: 0.202%,–
CC(C)n1c(-c2cccnc2)nc2cnccc21,inconclusive: -18.1%,–
O=C(O)c1ccc(NC(=O)c2cc3ccccc3o2)cc1,inconclusive: 460%,–
Cc1cccc(NCCC#N)c1,inconclusive: 5.87%,–
Cc1cccc(C)c1Nc1c(-c2ccc(N3CCOCC3)cc2)nc2cnccn12,–,"inconclusive: 14.1 µM [falling, single point]"
COc1ccccc1N1CCN(C(=O)CSc2nnc(NC(=O)C3CC3)s2)CC1,inconclusive: 0.853%,–
Cc1ccc(-c2cc(C(F)F)nc(S(C)(=O)=O)n2)cc1,inconclusive: 18.8%,–
O=C1CC(c2cccc(Cl)c2)c2cc3c(cc2N1)CCC3 (stereo unspecified),–,"inconclusive: 35.5 µM [falling, partial curve, poor fit]"
COc1ccc(/C=N/NC(=O)CNC(=O)c2cccs2)cc1,inconclusive: -24%,–
O=C1/C(=C/c2ccc(N3CCOCC3)o2)SC(=Nc2ccccc2)N1CCc1c[nH]c2ccccc12,–,"inconclusive: 10 µM [falling, partial curve, poor fit]"
COc1ccc(C2CC(=O)c3ccccc3O2)cc1 (stereo unspecified),inconclusive: 11.8%,–
Cc1ccsc1/C=N/Nc1ccc(Cl)nn1,inconclusive: 7.64%,–
O=C(c1cc([N+](=O)[O-])ccc1N1CCOCC1)N1CCN(c2ccccc2)CC1,–,"inconclusive: 1.12 µM [falling, full curve]"
